Measured values from PMC6102491.
These are yes or no findings as the source states them, for the method shown. For some of these results: In cells and extracts the contact can be indirect. Some results given as binding are weak or reduced against the parent protein; the word gives no strength.

Sequences of proteins named here, by UniProt entry; tags and fusion partners are left off.
UniProt P93002: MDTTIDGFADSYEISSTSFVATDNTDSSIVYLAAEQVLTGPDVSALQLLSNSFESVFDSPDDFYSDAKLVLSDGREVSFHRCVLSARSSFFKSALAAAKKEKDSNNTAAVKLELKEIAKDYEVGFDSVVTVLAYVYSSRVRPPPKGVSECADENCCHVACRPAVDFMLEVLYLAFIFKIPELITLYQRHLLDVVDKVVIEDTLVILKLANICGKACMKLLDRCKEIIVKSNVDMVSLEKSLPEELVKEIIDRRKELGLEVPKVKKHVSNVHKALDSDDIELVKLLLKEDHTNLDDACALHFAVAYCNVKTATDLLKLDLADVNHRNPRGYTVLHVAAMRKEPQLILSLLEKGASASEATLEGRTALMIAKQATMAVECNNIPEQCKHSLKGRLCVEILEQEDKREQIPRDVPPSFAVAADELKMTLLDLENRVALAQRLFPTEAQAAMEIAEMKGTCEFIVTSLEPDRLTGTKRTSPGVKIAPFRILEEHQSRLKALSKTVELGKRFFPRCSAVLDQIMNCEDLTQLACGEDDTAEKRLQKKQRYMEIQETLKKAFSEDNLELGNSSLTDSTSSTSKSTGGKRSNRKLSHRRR
UniProt Q9C518: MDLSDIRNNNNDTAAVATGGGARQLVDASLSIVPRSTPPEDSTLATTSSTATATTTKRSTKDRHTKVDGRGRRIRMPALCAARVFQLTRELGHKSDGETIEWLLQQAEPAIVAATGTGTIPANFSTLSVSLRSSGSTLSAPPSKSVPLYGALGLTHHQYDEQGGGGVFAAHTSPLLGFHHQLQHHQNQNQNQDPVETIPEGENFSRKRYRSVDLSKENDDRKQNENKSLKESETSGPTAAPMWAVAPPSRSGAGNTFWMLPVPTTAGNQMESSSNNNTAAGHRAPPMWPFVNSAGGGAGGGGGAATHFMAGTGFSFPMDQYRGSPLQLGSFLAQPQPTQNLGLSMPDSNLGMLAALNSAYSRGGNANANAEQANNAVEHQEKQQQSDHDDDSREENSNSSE
UniProt Q93Z00: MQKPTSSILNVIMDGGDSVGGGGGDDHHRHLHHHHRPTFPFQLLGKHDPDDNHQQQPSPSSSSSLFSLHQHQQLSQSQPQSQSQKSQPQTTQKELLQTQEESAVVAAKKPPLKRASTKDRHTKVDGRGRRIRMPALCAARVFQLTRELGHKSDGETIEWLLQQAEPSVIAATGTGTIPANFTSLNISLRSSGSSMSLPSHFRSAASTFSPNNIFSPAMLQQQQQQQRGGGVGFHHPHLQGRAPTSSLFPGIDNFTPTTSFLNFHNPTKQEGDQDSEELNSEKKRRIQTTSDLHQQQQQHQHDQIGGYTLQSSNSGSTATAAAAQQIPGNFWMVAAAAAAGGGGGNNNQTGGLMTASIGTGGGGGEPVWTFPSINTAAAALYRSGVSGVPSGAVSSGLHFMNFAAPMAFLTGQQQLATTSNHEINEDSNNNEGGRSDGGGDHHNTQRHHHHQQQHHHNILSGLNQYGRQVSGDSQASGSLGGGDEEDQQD

How the values were obtained:
[1] = biological target: NPR1 fused with a C-terminal GFP tag (NPR1-GFP) (Arabidopsis) (UniProt P93002); test: co-IP; NPR1-GFP co-expressed with HA-TCP14 or HA-TCP15 in N. benthamiana; extracts incubated with GFP-Trap MA beads at 4°C overnight; immunoblot with anti-HA
[2] = biological target: TCP8 fused with an N-terminal FLAG tag (FLAG-TCP8) (Arabidopsis) (UniProt Q9C518); test: co-IP; NPR1-GFP and FLAG-TCP8 co-expressed in N. benthamiana; extracts incubated with anti-FLAG M2 magnetic beads at 4°C overnight, no DTT in any buffer; immunoblot with anti-GFP
[3] = biological target: NPR1 fused with a GAL4 DNA binding domain (BD-NPR1) (Arabidopsis) (UniProt P93002); test: two-hybrid; individual prey tests; BD-NPR1 bait (pDEST32, AH109) mated with AD-TF prey (pDEST22, Y187); growth of diploids on -Leu -Trp -His with 1 mM 3-AT
[4] = biological target: NPR1 fused with a GAL4 DNA binding domain (BD-NPR1) (Arabidopsis) (UniProt P93002); test: two-hybrid; library screen; Arabidopsis NPR1 as bait, Arabidopsis transcription factor library as prey

With HA-TCP15 (from UniProt Q9C9L2 1-325) the binding [1] was “binds”.

“NPR1 fused with a C-terminal GFP tag (NPR1-GFP) (from UniProt P93002 1-593)” was tested, and the binding [2] was “binds”.

In the case of “TCP8 fused with a GAL4 activation domain (AD-TCP8) (from UniProt Q9C518 1-401)”, the binding [3] is reported as “binds”.

“TCP14 fused with a GAL4 activation domain (AD-TCP14) (from UniProt Q93Z00 1-489)” was tested, and the binding [3] was “binds”.

In the case of “TCP14 fused with an N-terminal HA tag (HA-TCP14) (from UniProt Q93Z00 1-489)”, the binding [1] is reported as “binds”.

In the case of “TCP15 fused with a GAL4 activation domain (AD-TCP15) (from UniProt Q9C9L2 1-325)”, the binding [3] is reported as “binds” and the binding [4] is reported as “binds”.
